{"source": "PubChem BioAssay AID1259425, University of Nebraska Medical Center – 2018", "assay": "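Compare each knockdown with KSR1 silencing using changes in marker transcripts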 (primary screen)", "system": "HCT116 human colon cancer cells", "knock-down reagent": "siRNA pool against human genes, 50 nM siRNA", "read-out": "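After 50 nM siRNA pool, branched-DNA assay measures six marker transcripts per well, minus blank, normalised to the geometric mean of two housekeeping transcripts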", "direction": "BNIP3L mRNA: higher = more BNIP3L transcript after knockdown; NDRG1 mRNA: higher = more NDRG1 transcript after knockdown", "note": "Here is an unselected part of about 14,000 deposited reagents. Further read-outs or replicates are left out here. Reagent sequences are not shown. The record does not give: the time to read-out."}
{"gene symbol": "NAT9 (N-acetyltransferase 9)", "BNIP3L mRNA, set 1": 0.179, "NDRG1 mRNA, set 1": 0.591}
{"gene symbol": "HTR1B (5-hydroxytryptamine receptor 1B)", "BNIP3L mRNA, set 1": 0.209, "NDRG1 mRNA, set 1": 0.742}
{"gene symbol": "IGFALS", "BNIP3L mRNA, set 1": 0.109, "NDRG1 mRNA, set 1": 0.0721}
{"gene symbol": "MUC4 (mucin 4, cell surface associated)", "BNIP3L mRNA, set 1": 0.0845, "NDRG1 mRNA, set 1": 0.654}
{"gene symbol": "FTHL17 (ferritin heavy chain like 17)", "BNIP3L mRNA, set 1": 0.151, "NDRG1 mRNA, set 1": 0.382}
{"gene symbol": "LTBP4 (latent transforming growth factor beta binding protein 4)", "BNIP3L mRNA, set 1": 0.0875, "NDRG1 mRNA, set 1": 0.23}
{"gene symbol": "CYFIP2 (cytoplasmic FMR1 interacting protein 2)", "BNIP3L mRNA, set 1": 0.109, "NDRG1 mRNA, set 1": 0.156}
{"gene symbol": "CXCL10 (C-X-C motif chemokine ligand 10)", "BNIP3L mRNA, set 1": 0.104, "NDRG1 mRNA, set 1": 0.0669}
{"gene symbol": "BAG4 (BAG cochaperone 4)", "BNIP3L mRNA, set 1": 0.0614, "NDRG1 mRNA, set 1": 0.166}
{"gene symbol": "ODF1 (outer dense fiber of sperm tails 1)", "BNIP3L mRNA, set 1": 0.208, "NDRG1 mRNA, set 1": 0.257}
{"gene symbol": "EPHX3 (epoxide hydrolase 3)", "BNIP3L mRNA, set 1": 0.0684, "NDRG1 mRNA, set 1": 0.202}
{"gene symbol": "STAB2 (stabilin 2)", "BNIP3L mRNA, set 1": 0.0952, "NDRG1 mRNA, set 1": 0.441}
{"gene symbol": "SLC30A5", "BNIP3L mRNA, set 1": 0.327, "NDRG1 mRNA, set 1": 0.479}
{"gene symbol": "SLC1A1", "BNIP3L mRNA, set 1": 0.0997, "NDRG1 mRNA, set 1": 0.228}
{"gene symbol": "METAP2 (methionyl aminopeptidase 2)", "BNIP3L mRNA, set 1": 0.0876, "NDRG1 mRNA, set 1": 0.281}
{"gene symbol": "BAG1 (BAG cochaperone 1)", "BNIP3L mRNA, set 1": 0.221, "NDRG1 mRNA, set 1": 0.268}
{"gene symbol": "PEX5L (peroxisomal biogenesis factor 5 like)", "BNIP3L mRNA, set 1": 0.0631, "NDRG1 mRNA, set 1": 0.305}
{"gene symbol": "HSPBAP1 (HSPB1 associated protein 1)", "BNIP3L mRNA, set 1": 0.13, "NDRG1 mRNA, set 1": 0.291}
{"gene symbol": "DNAH8 (dynein axonemal heavy chain 8)", "BNIP3L mRNA, set 1": 0.0388, "NDRG1 mRNA, set 1": 0.329}
{"gene symbol": "NRGN (neurogranin)", "BNIP3L mRNA, set 1": 0.116, "NDRG1 mRNA, set 1": 0.272}
{"gene symbol": "SLC35A5", "BNIP3L mRNA, set 1": 0.122, "NDRG1 mRNA, set 1": 0.88}
{"gene symbol": "GPR62 (G protein-coupled receptor 62)", "BNIP3L mRNA, set 1": 0.221, "NDRG1 mRNA, set 1": 0.0965}
{"gene symbol": "UQCR11 (ubiquinol-cytochrome c reductase, complex III subunit XI)", "BNIP3L mRNA, set 1": 0.123, "NDRG1 mRNA, set 1": 0.208}
{"gene symbol": "AOC1 (amine oxidase copper containing 1)", "BNIP3L mRNA, set 1": 0.0678, "NDRG1 mRNA, set 1": 0.378}
{"gene symbol": "ATP5F1A (ATP synthase F1 subunit alpha)", "BNIP3L mRNA, set 1": 0.0867, "NDRG1 mRNA, set 1": 0.211}
{"gene symbol": "NLN (neurolysin)", "BNIP3L mRNA, set 1": 0.105, "NDRG1 mRNA, set 1": 0.409}
{"gene symbol": "NUBP2 (NUBP iron-sulfur cluster assembly factor 2, cytosolic)", "BNIP3L mRNA, set 1": 0.126, "NDRG1 mRNA, set 1": 0.202}
{"gene symbol": "CHAD (chondroadherin)", "BNIP3L mRNA, set 1": 0.17, "NDRG1 mRNA, set 1": 0.33}

Reprinted from the entries so far for reference:
{"gene symbol": "SLC1A1", "BNIP3L mRNA, set 1": 0.0997, "NDRG1 mRNA, set 1": 0.228}
{"gene symbol": "METAP2 (methionyl aminopeptidase 2)", "BNIP3L mRNA, set 1": 0.0876, "NDRG1 mRNA, set 1": 0.281}
